Earlier results as cited in patent publication US11813355B2, “Curcumin-loaded nanoemulsions, method of manufacture, and method of preventive treatment using the same” (UNIVERSIDAD DE CHILE, priority 2016, dated 2023).
For at least one compound, name, drawing or mass did not settle the structure.

System: melanoma
Details: cited from earlier work

CN(C)/N=N/c1[nH]cnc1C(N)=O [dacarbazine]
Patients that respond: 15% | Patients that survive for extended periods: 1-2%
